Primary screen of a compound library

Sequences of proteins named here, by UniProt entry; tags and fusion partners are left off.
UniProt E9BF75, entry or part of it: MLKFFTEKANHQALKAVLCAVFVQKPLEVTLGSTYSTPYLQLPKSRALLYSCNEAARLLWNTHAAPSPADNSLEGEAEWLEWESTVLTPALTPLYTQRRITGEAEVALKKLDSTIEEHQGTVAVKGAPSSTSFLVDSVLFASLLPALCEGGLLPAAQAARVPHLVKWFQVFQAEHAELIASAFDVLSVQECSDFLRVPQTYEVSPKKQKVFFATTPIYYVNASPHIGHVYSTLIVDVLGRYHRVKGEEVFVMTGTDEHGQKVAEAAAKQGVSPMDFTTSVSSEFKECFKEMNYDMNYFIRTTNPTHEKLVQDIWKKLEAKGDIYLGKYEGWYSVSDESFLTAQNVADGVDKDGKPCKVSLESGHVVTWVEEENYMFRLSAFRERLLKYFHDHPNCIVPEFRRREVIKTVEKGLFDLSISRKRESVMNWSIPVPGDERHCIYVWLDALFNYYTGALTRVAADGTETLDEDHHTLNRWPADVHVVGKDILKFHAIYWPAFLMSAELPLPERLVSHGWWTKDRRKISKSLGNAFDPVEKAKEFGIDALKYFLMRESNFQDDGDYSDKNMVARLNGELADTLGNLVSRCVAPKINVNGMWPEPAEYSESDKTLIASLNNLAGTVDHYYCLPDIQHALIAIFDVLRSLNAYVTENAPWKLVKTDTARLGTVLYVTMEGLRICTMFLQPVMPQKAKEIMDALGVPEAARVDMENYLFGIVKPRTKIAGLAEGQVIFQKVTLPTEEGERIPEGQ

Source: ChEMBL document CHEMBL3988442, “University of Dundee, Small-Polar-MMV Screening Library” (2021).

A: 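Assay on Mycobacterium tuberculosis, filed only as a heat shock assay from Cornell; the read-out is not stated. The concentration is filed as 10 mM, unlikely as a test dose, so the dose is not known. The record gives no direction; compounds that gave an IC50 in retests scored well above the rest, so higher reads as stronger inhibition. About 69,000 compounds were tested under these conditions; 1.4% (about 930) showed 50% or more at least once.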
B: 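Methionyl-tRNA synthetase (putative), Leishmania donovani (UniProt E9BF75). Primary screen of methionyl-tRNA synthetase; the read-out is not stated. The test concentration is not given. The values are filed as inhibition. About 68,000 compounds were tested under these conditions; 0.035% (about 24) showed 50% or more at least once.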
C: 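Whole-cell assay for inhibitors of Mycobacterium tuberculosis growth, labelled Cornell in the record; the read-out is not stated. The concentration is filed as 10 mM, unlikely as a test dose, so the dose is not known. Higher means stronger inhibition (inferred from two other growth screens of the library). Size under these conditions: about 53,000 compounds, about 900 of them at 50% or above in at least one test.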

Results are percentages, as filed. The controls that fix the scale are not given in the record; negative values are as filed. The compounds are a random part of those screened. A dash means the value is not listed here; it may have been measured.

| SMILES | A | B | C |
|---|---|---|---|
| `Cc1cc(C(=O)NC2CCc3c(ccc(=O)n3CC(C)C)C2)no1` (centres unmarked) | 17.39 | 9.29 | 0.6123 |
| `CC1CCCN(C(=O)CCc2cccnc2)C1` (centres unmarked) | 15.21 | 7.981 | 1.969 |
| `CN1CCOCC12CCN(C(=O)C1CCC1)CC2` | - | -4.167 | - |
| `CS(=O)(=O)N1CCCC1c1ccnc2nccn12` (centres unmarked) | 10.22 | 23.44 | 37.48 |
| `CCN(Cc1cnn(C)c1)S(=O)(=O)c1ccc(NC(C)=O)cc1` | -0.1665 | 9.22 | 12.72 |
| `CCOC(=O)[C@]12CCCN(Cc3nccs3)C[C@H]1CN(C(C)=O)C2` | - | 16.67 | - |
| `CCn1ccnc1C1CCN(Cc2cccc(C)n2)CC1` | 1.161 | 16.91 | 24.46 |
| `[H][C@@]12CCN(C3CCOCC3)C[C@@]1([H])O[C@H](C(=O)N1CCCC1)C2` | 8.705 | - | - |
| `NC(=O)C1CCCN1Cc1ccccc1NC(=O)Cc1cccc(F)c1` (centres unmarked) | -37.51 | 1.289 | -0.8625 |
| `COC(=O)CN(C(=O)C(C)c1c(F)cccc1F)c1cccc(C)n1` (centres unmarked) | -21.25 | -25.97 | - |
| `Cc1cc(C)c(CNC(=O)N2CCC(N3CCNC3=O)CC2)c(C)c1` | -11.92 | 13.04 | 5.35 |
| `O=C(O)C(F)(F)F.O=C(O)C(F)(F)F.[H][C@]12CCN(C(=O)c3ccc4ncccc4c3)C[C@@]1([H])OCCN(C)C2` | -1.957 | - | -7.104 |
| `Fc1cnc(N2CC[C@@H]3CN(Cc4ccncc4)CCO[C@@H]3C2)nc1` | - | 12.41 | - |
| `Cn1cc(C(=O)N2CCN(Cc3cscn3)CC2)ccc1=O` | 6.682 | 8.871 | - |
| `CS(=O)(=O)NCCC1CCCCN1C(=O)NCCc1ccccn1` (centres unmarked) | -5.977 | 5.584 | - |
| `c1ccc2nc(N3CCOC(Cn4cccn4)C3)cnc2c1` (centres unmarked) | -17.06 | 23.94 | - |
| `Cl.O=C(Nc1ccccc1)C1=NOC2(CCNCC2)C1` | -0.3351 | - | 18.2 |
| `CCSc1ncc(-c2cc(C3CCC3)nc(N)c2C#N)cn1` | -9.187 | 16.91 | -19.23 |
| `Cn1ccc(C(=O)NCc2ccc(N3CCCCC3)nc2)cc1=O` | -10.56 | 11.27 | -36.48 |
| `N#Cc1cccc(CNC(=O)C2=NN(c3ccccc3)C(=O)CN2)c1` | 14.9 | 4.27 | - |
| `O=C(CN1C(=O)CCC1=O)NCc1cc(C2CC2)n(C2CCCC2)n1` | 7.9 | 7.914 | 15.59 |
| `Cc1ccc(CN2CCC3(CCCC(=O)N3)CC2)s1.O=C(O)C(F)(F)F` | 6.626 | - | - |
| `COc1cc(N2C[C@@H]3COC[C@]3(COCc3cccc(C)n3)C2)ncn1` | - | 4.377 | - |
| `CC(=O)Nc1ccc2nc(-c3nccn3C[C@@H]3CCCO3)ccc2c1` | -3.925 | 19.22 | 11.02 |
| `COc1ccc(C(=O)NCC2CCCN(C3CCOCC3)C2)c(O)c1` (centres unmarked) | 1.417 | 0 | -13.78 |
| `COCCN(C)C(=O)c1nc2c(s1)CCCN2c1ccc(C)nn1` | 3.552 | 13.19 | -0.8419 |
| `Fc1ccc(C2(CNCCc3cccs3)CCOC2)cc1` (centres unmarked) | -0.8452 | 5.932 | 0.9548 |
| `Cc1ccc(F)cc1NC(=O)NCC(C)N1CCOCC1` (centres unmarked) | -25.94 | 6.667 | 7.03 |
| `Cc1nc(C)n(CC2CN(Cc3cccnc3)Cc3nccn3C2)n1` (centres unmarked) | - | -1.718 | - |
| `CCS(=O)(=O)N1Cc2[nH]nc(COCc3cccnc3)c2C1` | - | 12.57 | - |
| `CN(Cc1ccc(-n2ccnc2)cc1)Cc1ncc[nH]1` | -45.39 | 10.67 | - |
| `COCCN1CCOCC12CCN(C(=O)Cc1cccs1)CC2` | - | 4.762 | - |
| `[H][C@]12CN(C)CCN1C(=O)N(C1CCOCC1)C2` | 1.88 | - | -7.72 |
| `COCC1CN(C(=O)c2ccco2)Cc2nccn2C1` (centres unmarked) | 0.2635 | 13.74 | 27.32 |
| `Cc1cc(C2NC(=O)CN2Cc2ccc(Br)cc2)cc(C)c1O` (centres unmarked) | 18.18 | 12.91 | 39.51 |
| `O=C(CS(=O)(=O)Cc1nnnn1C1CC1)NCCc1ccccc1` | 2.569 | 4.19 | -9.377 |
| `CN(C)CC1CSCCCN1C(=O)c1ccsc1` (centres unmarked) | -29.65 | 7.726 | - |
| `O=C(CCN1CCCC1c1cccc2c1OCCO2)N1CCOCC1` (centres unmarked) | 4.92 | 9.549 | 1.634 |
| `CCc1cc(N[C@H](C(N)=O)C(C)C)n2nc(C)c(C)c2n1` | 6.6 | 7.829 | 3.006 |
| `O=C(O)C(F)(F)F.O=C(O)c1c(-c2cncnc2)ncc2c1CCN(CC1CCOC1)C2` (centres unmarked) | 10.17 | - | -5.171 |
| `O=C(Nc1ccc(-n2cccn2)c(F)c1)C1CCN(C(=O)C2CC2)CC1` | 3.867 | 7.246 | 9.688 |
| `C[C@H](NC(=O)Cc1csc(-c2cccc(Cl)c2)n1)C(=O)O` | -11 | 0.5714 | - |
| `[H][C@]12CC[C@@]3(N=C(C)N(C)C3=O)[C@@]1([H])CN(S(=O)(=O)CC(C)C)C2` | 0.07448 | - | 16.28 |
| `CN1CCC2(CCN(C(=O)c3ccccc3)CC2)C1` | -9.01 | 6.111 | - |
| `COc1c(C2CCCN2CCOc2ccccc2C#N)c(C)nn1C` (centres unmarked) | -7.76 | 1.748 | 1.855 |
| `NC(=O)CN1CCCC(CCCc2ccccn2)(C(N)=O)C1` (centres unmarked) | -12.48 | 10.94 | 2.116 |
| `COc1ccc(C(=O)N2CCN(C(=O)Cn3nccc3C)CC2)cc1` | 24.54 | 8.675 | 8.7 |
| `NC(=O)C1(CCCc2ccccn2)CCCN(c2ncccn2)C1` (centres unmarked) | -23.42 | 13.56 | 16.9 |
| `COc1cccc(OC2CN(C(=O)c3ccnc(OC)c3)C2)c1` | 3.547 | 13.06 | 17.3 |
| `CC(Cn1cccn1)C(=O)N1CCC(NS(C)(=O)=O)CC1` (centres unmarked) | -2.849 | 9.408 | -18.44 |
| `CC(C)=CCCC1(C)CCC(=O)N(CCc2csc(N)n2)C1` (centres unmarked) | 1.443 | 22.4 | 12.25 |
| `OC(COCc1ccccc1)CSc1nnc2ccccn12` (centres unmarked) | 12.4 | 12.9 | 7.029 |
| `O=c1oc2ccccc2n1CCN(CC1CCOC1)C1CC1` (centres unmarked) | -26.82 | 9.025 | 23.76 |
| `O=C(c1nn[nH]c1Nc1ccc(Cl)cc1)N1CCSCC1` | 2.892 | 19.34 | - |
| `CCOc1ccc(C(=O)N(Cc2cnn(C)c2)C(C)C)cc1OCC` | 6.149 | 14.8 | -6.143 |
| `CNC(=O)C1CCCCN1C(=O)c1csc(-c2ccccc2)n1` (centres unmarked) | -1.342 | 4.57 | 18.6 |
| `Cc1ccc(CN2Cc3ccnn3CC(COCc3cccnc3)C2)o1` (centres unmarked) | -12.36 | 5.842 | 8.612 |
| `O=C(O)C(F)(F)F.O=C(O)C(F)(F)F.[H][C@]12C[C@@H](C(=O)N(C)Cc3ccccn3)CO[C@@]1([H])CCN(CC1CC1)C2` | 30 | - | -7.536 |
| `Cc1ccc(C(=O)N2CCSCC2)cc1NC(C)C` | 5.77 | 3.746 | 8.4 |
| `CCOc1ccc(C(=O)N(C)Cc2nccn2CC(F)(F)F)cc1` | 0.6475 | 12.14 | - |
| `COCCN1C(=O)[C@]2(CC[C@@H]3CN(S(=O)(=O)CC(C)C)C[C@@H]32)N=C1C` | - | 4.127 | - |
| `[H][C@@]12CC(C)=CC[C@]1([H])CN(C(=O)c1ccc(-c3nnn(C)n3)cc1)C2` | 26.9 | - | -27.89 |

Some entries from above, unchanged:

| SMILES | A | B | C |
|---|---|---|---|
| `Cc1ccc(C(=O)N2CCSCC2)cc1NC(C)C` | 5.77 | 3.746 | 8.4 |
| `COCCN(C)C(=O)c1nc2c(s1)CCCN2c1ccc(C)nn1` | 3.552 | 13.19 | -0.8419 |
| `CCOc1ccc(C(=O)N(Cc2cnn(C)c2)C(C)C)cc1OCC` | 6.149 | 14.8 | -6.143 |
| `C[C@H](NC(=O)Cc1csc(-c2cccc(Cl)c2)n1)C(=O)O` | -11 | 0.5714 | - |
| `CCc1cc(N[C@H](C(N)=O)C(C)C)n2nc(C)c(C)c2n1` | 6.6 | 7.829 | 3.006 |